Data reported in patent US20100137294A1, “COMPOUNDS, COMPOSITIONS AND METHODS FOR CONTROLLING INVERTEBRATE PESTS” (GENETIC TECHNOLOGIES LIMITED, priority 2006, published 2010).
Some results were stated once for a whole list of compounds, not compound by compound. Some ranges recur; such a range may be that of the whole group of compounds.

System: H. contortus L3 larvae
Assay: Testing compounds on H. contortus L3 larvae (96-well microplate larval kill assay)
Assay type: cell-based, Haemonchus contortus
Details: primary screening, 5 mM compound, 5% DMSO, overnight RT
Procedure: The L3 stage of H. contortus was collected from the faeces of experimentally infected sheep and stored in water at room temperature until needed. A stock solution of each compound was prepared by suspending the compound in 100% dimethyl sulphoxide (DMSO) to a final concentration of 100 mM.
For this set of experiments, Trichostrongylus vitrinus (T. vitrinus) L3 larvae were used as positive controls by testing with the compounds identified in previous experiments as being able to kill all larvae. Approximately 50 L3 larvae of each species were added, in 95 μl of water, to the wells of a 96-well microtitre plate. All compounds were tested initially at a concentration of 5 mM by adding 5 μl of inhibitor in 100% DMSO.
The plates were incubated overnight at room temperature (RT). Plates were viewed under a binocular microscope and the compounds showing 100% kill of H. contortus larvae were determined. Concentrations above 5 mM were not tested as DMSO alone kills larvae when the proportion exceeds 5% of the total volume. Many of the compounds are predicted to have limited solubility in aqueous solution, thus requiring the presence of organic solvent. Additional controls included wells with and without various concentrations of DMSO alone.
Eight inhibitors, from the primary screening, appeared to kill 90-100% of H. contortus L3 larvae at a concentration of 5 mM. […]

SMILES	% of H. contortus L3 larvae killed
COc1ccc(CNC(=O)C2C(C(=O)O)[C@@H]3CC[C@H]2O3)cc1OC (some centres unmarked) [Compound 17, 3-(methyl-3,4 dimethoxyphenylcarbamoyl)-7-Oxabicyclo(2.2.1)heptane-2-carboxylic acid]	90-100%
O=C(O)CCCN1C(=O)C2C(C1=O)[C@H]1CC[C@@H]2O1 (some centres unmarked) [Compound 13, N-Butanoic acid-7-Oxabicyclo(2.2.1)heptane-2,3-dicarboximide]	90-100%
